The values that follow come from article PMC10177021.

Sequences of proteins named here, by UniProt entry; tags and fusion partners are left off.
UniProt Q6WVG3: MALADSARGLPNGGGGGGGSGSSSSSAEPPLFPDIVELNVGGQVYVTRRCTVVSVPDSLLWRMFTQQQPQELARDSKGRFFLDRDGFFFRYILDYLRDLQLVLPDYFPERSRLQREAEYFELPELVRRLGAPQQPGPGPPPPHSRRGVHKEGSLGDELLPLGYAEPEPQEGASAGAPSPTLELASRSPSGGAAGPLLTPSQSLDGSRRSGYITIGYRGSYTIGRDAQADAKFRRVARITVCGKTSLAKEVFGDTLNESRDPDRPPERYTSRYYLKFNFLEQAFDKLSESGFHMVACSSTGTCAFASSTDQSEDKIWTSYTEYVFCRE

Assay [1] concerns the target mouse KCTD12, recombinant in HEK293 cells (mouse) (UniProt Q6WVG3). The assay is described as follows: co-IP; KCTD12 immunoprecipitated with a guinea pig polyclonal anti-KCTD12 antibody from whole cell lysates of HEK293 cells stably expressing KCTD12 and transiently transfected with mGlu1α or GABAB2-YFP (mock-transfected as control); immunoblot. A general note: In western blotting, separated proteins are transferred to a membrane and probed.

The target in assay [2] is mouse KCTD12, recombinant in HEK293 cells (mouse), Q6WVG3. The assay is described as above. As to conditions: remark: other sources report otherwise.

Results are given in words; binding and its absence hold for the method and conditions named. In cells and extracts the contact can be indirect. Some binding calls cover weakened binding; strength is not graded here. For some assays here: Where a sequence is shown, tags or fusion partners need not be part of it.

B1: mouse GABAB2-YFP (receptor, UniProt Q80T41 41-940)
chain: WARGAPRPPPSSPPLSIMGLMPLTKEVAKGSIGRGVLPAVELAIEQIRNESLLRPYFLDLRLYDTECDNAKGLKAFYDAIKYGPNHLMVFGGVCPSVTSIIAESLQGWNLVQLSFAATTPVLADKKKYPYFFRTVPSDNAVNPAILKLLKHFRWRRVGTLTQDVQRFSEVRNDLTGVLYGEDIEISDTESFSNDPCTSVKKLKGNDVRIILGQFDQNMAAKVFCCAFEESMFGSKYQWIIPGWYEPAWWEQVHVEANSSRCLRRSLLAAMEGYIGVDFEPLSSKQIKTISGKTPQQYEREYNSKRSGVGPSKFHGYAYDGIWVIAKTLQRAMETLHASSRHQRIQDFNYTDHTLGRIILNAMNETNFFGVTGQVVFRNGERMGTIKFTQFQDSREVKVGEYNAVADTLEIINDTIRFQGSEPPKDKTIILEQLRKISLPLYSILSALTILGMIMASAFLFFNIKNRNQKLIKMSSPYMNNLIILGGMLSYASIFLFGLDGSFVSEKTFETLCTVRTWILTVGYTTAFGAMFAKTWRVHAIFKNVKMKKKIIKDQKLLVIVGGMLLIDLCILICWQAVDPLRRTVERYSMEPDPAGRDISIRPLLEHCENTHMTIWLGIVYAYKGLLMLFGCFLAWETRNVSIPALNDSKYIGMSVYNVGIMCIIGAAVSFLTRDQPNVQFCIVALVIIFCSTITLCLVFVPKLITLRTNPDAATQNRRFQFTQNQKKEDSKTSTSVTSVNQASTSRLEGLQSENHRLRMKITELDKDLEEVTMQLQDTPEKTTYIKQNHYQELNDILSLGNFTESTDGGKAILKNHLDQNPQLQWNTTEPSRTCKDPIEDINSPEHIQRRLSLQLPILHHAYLPSIGGVDASCVSPCVSPTASPRHRHVPPSFRVMVSGL
Take B1: the binding result in assay [1] is reported as “binds”.

B2: mouse mGlu1α, recombinant in HEK293 cells, P97772 21-1199 (receptor)
chain: RMPDRKVLLAGASSQRSVARMDGDVIIGALFSVHHQPPAEKVPERKCGEIREQYGIQRVEAMFHTLDKINADPVLLPNITLGSEIRDSCWHSSVALEQSIEFIRDSLISIRDEKDGLNRCLPDGQTLPPGRTKKPIAGVIGPGSSSVAIQVQNLLQLFDIPQIAYSATSIDLSDKTLYKYFLRVVPSDTLQARAMLDIVKRYNWTYVSAVHTEGNYGESGMDAFKELAAQEGLCIAHSDKIYSNAGEKSFDRLLRKLRERLPKARVVVCFCEGMTVRGLLSAMRRLGVVGEFSLIGSDGWADRDEVIEGYEVEANGGITIKLQSPEVRSFDDYFLKLRLDTNTRNPWFPEFWQHRFQCRLPGHLLENPNFKKVCTGNESLEENYVQDSKMGFVINAIYAMAHGLQNMHHALCPGYVGLCDAMKPIDGRKLLDFLIKSSFVGVSGEEVWFDEKGDAPGRYDIMNLQYTEANRYDYVHVGTWHEGVLNIDDYKIQMNKSGMVRSVCSEPCLKGQIKVIRKGEVSCCWICTACKENEFVQDEFTCRACDLGWWPNAELTGCEPITIRYLEWSDIESIIAIAFSCLGILVTLFVTLIFVLYRDTPVVKSSSRELCYIILAGIFLGYVCPFTLIAKPTTTSCYLQRLLVGLSSAMCYSALVTKTNRIARILAGSKKKICTRKPRFMSAWAQVIIASILISVQLTLVVTLIIMEPPMPILSYPSIKEVYLICNTSNLGVVAPVGYNGLLIMSCTYYAFKTRNVPANFNEAKYIAFTMYTTCIIWLAFVPIYFGSNYKIITTCFAVSLSVTVALGCMFTPKMYIIIAKPERNVRSAFTTSDVVRMHVGDGKLPCRSNTFLNIFRRKKPGAGNANSNGKSVSWSEPGGRQAPKGQHVWQRLSVHVKTNETACNQTAVIKPLTKSYQGSGKSLTFSDASTKTLYNVEEEDNTPSTHFSPPSSPSMVVHRRGPPVATTPPLPPHLSAEETPLFLADSVIPKGLPPPLPQQQQQPPPQPPPQQPKSLMDQLQGVVTNFGSGIPDFHAVLAGPGTPGNGLRSLYPPPPPPQHLQMLPLQLSTFREEPISPPGEDDDDDSSERFKLLQEFVYEREGNTEEDDLEEEEDLPAASKLTPEDSPALTPPSPFRDSVASGSSVPSSPVSESVLCTPPNVTYASVILRDYKQSSSTL
On to B2, for which the binding entry in assay [2] is “no binding”.
